Measurements as given in patent US8735588B2, “Nematocidal sulfonamides” (E I Du Pont De Nemours and Company, priority 2009, dated 2014).
Some results were stated once for a whole list of compounds, not compound by compound. At least one structure is not confirmed: it was looked up by name or label, or the drawing left a doubt.

Tested on: southern root-knot nematode (Meloidogyne incognita)
Assay: Test A: control of southern root-knot nematode by soil application, cucumber seedlings, root gall formation
Type: in vivo
Details: about 250 J2 larvae, 7 days at 27° C., no significant phytotoxicity
[1] = 50 ppm active ingredient applied to soil
[2] = 250 ppm active ingredient applied to soil

Structure (SMILES)	reduction in root galling, compared to solvent-treated controls (good levels of plant protection) [1] [%]	reduction in root galling, compared to solvent-treated controls (good levels of plant protection) [2] [%]
Nc1ccc(Cl)c(S(=O)(=O)NC(=O)c2cn3cc(C(F)(F)F)cc(Cl)c3n2)c1 [Compound 373]	≥ 50	≥ 50
CC(=O)Nc1ccc(Cl)c(S(=O)(=O)NC(=O)c2cn3cc(C(F)(F)F)cc(Cl)c3n2)c1 [Compound 375]		≥ 50
C#CCOc1ccc(Cl)c(S(=O)(=O)NC(=O)c2cn3cc(C(F)(F)F)cc(Cl)c3n2)c1 [Compound 377]	≥ 50	≥ 50
COC(=O)Nc1ccc(Cl)c(S(=O)(=O)NC(=O)c2cn3cc(C(F)(F)F)cc(Cl)c3n2)c1 [Compound 378]	≥ 50	≥ 50
O=C(NS(=O)(=O)c1cc(Br)ccc1Cl)c1cn2cc(C(F)(F)F)cc(Cl)c2n1 [Compound 379]	≥ 50	≥ 50
C[Si](C)(C)C#Cc1ccc(Cl)c(S(=O)(=O)NC(=O)c2cn3cc(C(F)(F)F)cc(Cl)c3n2)c1 [Compound 380]	≥ 50	≥ 50
C#Cc1ccc(Cl)c(S(=O)(=O)NC(=O)c2cn3cc(C(F)(F)F)cc(Cl)c3n2)c1 [Compound 381]	≥ 50	≥ 50
COc1ccc(Cl)c(S(=O)(=O)NC(=O)c2cn3cc(C(F)(F)F)cc(Br)c3n2)c1 [Compound 382, 8-bromo-N-[(2-chloro-5-methoxyphenyl)sulfonyl]-6-(trifluoromethyl)imidazo[1,2-a]pyridine-2-carboxamide]	≥ 50	≥ 50
CN(C)c1ccc(Cl)c(S(=O)(=O)NC(=O)c2cn3cc(C(F)(F)F)cc(Cl)c3n2)c1 [Compound 383]	≥ 50	≥ 50
Cc1ccc(N(C)C)cc1S(=O)(=O)NC(=O)c1cn2cc(C(F)(F)F)cc(Cl)c2n1 [Compound 384]	≥ 50	≥ 50
COc1cc(S(=O)(=O)NC(=O)c2cn3cc(C(F)(F)F)cc(Cl)c3n2)c(Cl)cc1Br [Compound 385]		≥ 50
COc1cc(S(=O)(=O)NC(=O)c2cn3cc(C(F)(F)F)cc(Cl)c3n2)c(Cl)cc1C#N [Compound 386]	≥ 50	≥ 50
Cc1cc(S(=O)(=O)NC(=O)c2cn3cc(C(F)(F)F)cc(Cl)c3n2)c(Cl)cc1Br [Compound 387]		≥ 50
Cc1cc(S(=O)(=O)NC(=O)c2cn3cc(C(F)(F)F)cc(Cl)c3n2)c(Cl)cc1C#N [Compound 388]	≥ 50	≥ 50
O=C(Nc1cccc(S(=O)(=O)NC(=O)c2cn3cc(C(F)(F)F)cc(Cl)c3n2)c1)c1ccc(F)cc1 [Compound 393]		≥ 50
CCCc1ccc(Br)c(S(=O)(=O)NC(=O)c2cn3cc(C(F)(F)F)cc(Cl)c3n2)c1 [Compound 395]	≥ 50	≥ 50
CCCc1ccc(Br)cc1S(=O)(=O)NC(=O)c1cn2cc(C(F)(F)F)cc(Cl)c2n1 [Compound 396]	≥ 50	≥ 50
CC(C)c1ccc(Br)c(S(=O)(=O)NC(=O)c2cn3cc(C(F)(F)F)cc(Cl)c3n2)c1 [Compound 397]	≥ 50	≥ 50
O=C(NS(=O)(=O)c1ccccc1Cl)c1cn2cc(C(F)(F)F)cc(Br)c2n1 [Compound 401]	≥ 50	
Cc1ccc(C)c(S(=O)(=O)NC(=O)c2cn3cc(C(F)(F)F)cc(Cl)c3n2)c1 [Compound 402]	≥ 50	≥ 50
Cc1ccc(C)c(S(=O)(=O)NC(=O)c2cn3cc(C(F)(F)F)cc(Br)c3n2)c1 [Compound 403]	≥ 50	≥ 50
Cc1noc(C)c1S(=O)(=O)NC(=O)c1cn2cc(C(F)(F)F)cc(Br)c2n1 [Compound 404]		≥ 50
Cc1ccc(C)c(S(=O)(=O)NC(=O)c2cn3cc(C(F)(F)F)cc(F)c3n2)c1 [Compound 406]	≥ 50	≥ 50

Structure (SMILES)	reduction in root galling, compared to solvent-treated controls (good levels of plant protection) [1] [%]	reduction in root galling, compared to solvent-treated controls (good levels of plant protection) [2] [%]
O=C(NS(=O)(=O)c1cc(C(F)(F)F)ccc1Cl)c1cn2cc(C(F)(F)F)cc(F)c2n1 [Compound 407]	≥ 50	≥ 50
Cc1cc(S(=O)(=O)NC(=O)c2cn3cc(C(F)(F)F)cc(F)c3n2)c(C)cc1Cl [Compound 408]	≥ 50	≥ 50
Cc1noc(C)c1S(=O)(=O)NC(=O)c1cn2cc(C(F)(F)F)cc(F)c2n1 [Compound 409]		≥ 50
Cc1cc(S(=O)(=O)NC(=O)c2cn3cc(C(F)(F)F)cc(Br)c3n2)c(C)cc1Cl [Compound 410]	≥ 50	≥ 50
COc1cc(C)c(S(=O)(=O)NC(=O)c2cn3cc(C(F)(F)F)cc(Br)c3n2)cc1OC [Compound 411]	≥ 50	≥ 50
COc1cc(C)c(S(=O)(=O)NC(=O)c2cn3cc(C(F)(F)F)cc(F)c3n2)cc1OC [Compound 412]		≥ 50
COc1ccc(Cl)c(S(=O)(=O)NC(=O)c2cn3cc(C(F)(F)F)cc(F)c3n2)c1 [Compound 414]	≥ 50	≥ 50
CCOc1cc(C(F)(F)F)cn2cc(C(=O)NS(=O)(=O)c3cc(C)ccc3C)nc12 [Compound 416]	≥ 50	
CCOc1cc(C(F)(F)F)cn2cc(C(=O)NS(=O)(=O)c3cc(C(F)(F)F)ccc3Cl)nc12 [Compound 417]		≥ 50
CCOc1cc(C(F)(F)F)cn2cc(C(=O)NS(=O)(=O)c3cc(C)c(Cl)cc3C)nc12 [Compound 418]		≥ 50
CCOc1cc(C(F)(F)F)cn2cc(C(=O)NS(=O)(=O)c3c(C)noc3C)nc12 [Compound 419]	≥ 50	≥ 50
CC(=O)c1ccc(Cl)c(S(=O)(=O)NC(=O)c2cn3cc(C(F)(F)F)ccc3n2)c1 [Compound 420]	≥ 50	≥ 50
COc1cc(C)c(S(=O)(=O)NC(=O)c2cn3cc(C(F)(F)F)ccc3n2)cc1OC [Compound 421]		≥ 50
COc1ccc(Cl)c(S(=O)(=O)NC(=O)c2cn3ccccc3n2)c1 [Compound 422]		≥ 50
O=C(NS(=O)(=O)c1cc(C(F)(F)F)ccc1Cl)c1cn2cc(C(F)(F)F)ccc2n1 [Compound 424]	≥ 50	≥ 50
Cc1noc(C)c1S(=O)(=O)NC(=O)c1cn2ccccc2n1 [Compound 425]		≥ 50
O=C(NS(=O)(=O)c1ccc(C(F)(F)F)c(Cl)n1)c1cn2cc(C(F)(F)F)cc(Cl)c2n1 [Compound 426]		≥ 50
COc1cc(S(=O)(=O)NC(=O)c2cn3cc(C(F)(F)F)ccc3n2)c(C)cc1C#N [Compound 427]	≥ 50	≥ 50
O=C(NS(=O)(=O)c1cc(C(F)(F)F)ccc1Cl)c1cn2cc(C(F)(F)F)cc(Cl)c2n1 [Compound 429]	≥ 50	≥ 50
Cc1noc(C)c1S(=O)(=O)NC(=O)c1cn2cc(C(F)(F)F)cc(Cl)c2n1 [Compound 430]	≥ 50	≥ 50
COc1ccc(Cl)c(S(=O)(=O)NC(=O)c2cn3cc(C(F)(F)F)cc(Cl)c3n2)c1 [Compound 431]	≥ 50	
CN(C)c1nc(S(=O)(=O)NC(=O)c2cn3cc(C(F)(F)F)cc(Cl)c3n2)c(Cl)cc1Cl [Compound 436]	≥ 50	≥ 50
